From publication PMC9709406 (Frontiers in Pharmacology, 2022)

Legend:
Assay type in all cases: cell-based, human
[1] = test system: H1975OR cells; assay: MTT assay, osimertinib-resistant H1975OR
From the text: (§1) The human cancer cells (H1650, H1975, KYSE70, KYSE410 and KYSE450) were purchased from the Type Culture Collection of the Chinese Academy of Sciences (Shanghai, China). The human immortalized normal esophageal epithelial cell line SHEE was donated by Dr. Enmin Li from the Laboratory of Tumor Pathology (Shantou University Medical College, Shantou, Guangdong, China). Drug-resistant cells (H1650TR, H1975OR, KYSE70TR, KYSE410TR and KYSE450TR) were induced by China-US (Henan) Hormel Cancer Institute. The cellswere cultured in RPMI-1640 complete growth medium containing 100 U/mL penicillin-streptomycin and 10% FBS. Based on the above medium formula, 100 nm/L paclitaxel was added in taxol-resistant cells, 100 nm/L gefitinib was added in gefitinib-resistant cells. The cells were incubated at 37 °C in an atmosphere containing 5% of CO2. The compounds were dissolved in DMSO to make a 50 mM stock solution and were diluted to the concentration of working solutions with complete growth medium before administration.
(§2) Cells were seeded in 96-well plates with 2,200–2,500 cells/well in100 μL. One day after seeding, test compounds with the concentration between 0 and 50 μM were added with 0.1% DMSO as control. Five multiple wells for each concentration. […] The absorbance at 490 nm was measured using a microplate reader (Thermo).

[2] = test system: H1650TR cells; assay: MTT assay, taxol-resistant H1650TR
From the text: as §1
Cells were seeded in 96-well plates with 2,200–2,500 cells/well in100 μL. One day after seeding, test compounds with the concentration between 0 and 50 μM were added with 0.1% DMSO as control. Five multiple wells for each concentration. After 48 h, MTT was added and incubated in the plate for 1–4 h in the incubator. The absorbance at 490 nm was measured using a microplate reader (Thermo).

[3] = test system: KYSE70TR cells; assay: MTT assay, taxol-resistant KYSE70TR
From the text: as §1, §2

[4] = test system: KYSE410TR cells; assay: MTT assay, taxol-resistant KYSE410TR
From the text: as §1, §2

[5] = test system: KYSE450TR cells; assay: MTT assay, taxol-resistant KYSE450TR
From the text: as §1, §2

| SMILES | Resistance index (24 h) ([1]; H1975OR vs H1975, 24 h IC50) | Resistance index (48 h) ([1]; H1975OR vs H1975, 48 h IC50) | Resistance index (24 h) ([2]; H1650TR vs H1650, 24 h IC50) | Resistance index (48 h) ([2]; H1650TR vs H1650, 48 h IC50) | Resistance index (24 h) ([3]; KYSE 70 TR vs KYSE 70, 24 h IC50) | Resistance index (48 h) ([3]; KYSE 70 TR vs KYSE 70, 48 h IC50) | Resistance index (24 h) ([4]; KYSE 410 TR vs KYSE 410, 24 h IC50) | Resistance index (48 h) ([4]; KYSE 410 TR vs KYSE 410, 48 h IC50) | Resistance index (24 h) ([5]; KYSE 450 TR vs KYSE 450, 24 h IC50) | Resistance index (48 h) ([5]; KYSE 450 TR vs KYSE 450, 48 h IC50) |
| --- | --- | --- | --- | --- | --- | --- | --- | --- | --- | --- |
| C=CC(=O)Nc1cc(Nc2nccc(-c3cn(C)c4ccccc34)n2)c(OC)cc1N(C)CCN(C)C [osimertinib] | 23.57 | 58.48 | – | – | – | – | – | – | – | – |
| CC(=O)O[C@H]1C(=O)[C@@]2(C)[C@H]([C@H](OC(=O)c3ccccc3)[C@]3(O)C[C@H](OC(=O)[C@H](O)[C@@H](NC(=O)c4ccccc4)c4ccccc4)C(C)=C1C3(C)C)[C@]1(OC(C)=O)CO[C@@H]1C[C@@H]2O [taxol, reference compound] | – | – | 4.74 | 7.74 | 7.69 | 56.00 | 5.00 | 32.88 | 4.84 | 15.38 |
